Results of single-concentration screens

Source: ChEMBL document CHEMBL3988442, “University of Dundee, Small-Polar-MMV Screening Library” (2021).

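Assay of Toxoplasma gondii numbers, read through their beta-galactosidase reporter with a colour substrate. Compounds at 50 µM. The record gives no direction; the compounds picked for IC50 retests had high values, so higher reads as fewer parasites. About 18,000 compounds were tested under these conditions; 0.94% (about 170) showed 50% or more at least once.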

Results are given as percent effect.
How 0% and 100% were set is not recorded. Most values in the screen are low, and negative values occur.
Compounds were drawn at random from those tested, without regard to their results.

O=C(Cc1cc(F)ccc1F)N[C@H]1CCCNC1 read 3.721%.
CO[C@H]1[C@@H]2CC[C@H]1CN(C(=O)c1cc(Cl)c[nH]c1=O)C2 read 20.57%.
COCc1csc(CO)c1 read 13.71%.
CCOc1ccc(CC(=O)N2CCN(CC)CC2)cc1 read 2.451%.
CC(C(=O)Nc1ccc2c(c1)CCC2)S(C)(=O)=O (stereo unspecified) read -19.24%.
CCOc1ccccc1-n1c(C)cc(=O)[nH]c1=O read 2.035%.
CC(C)(C)CC(=O)Nc1nnc(-c2ccccn2)[nH]1 read 11.09%.
CC(C)(C)C(=O)N1CCC(NC(=O)C2CCOC2)CC1 (stereo unspecified) read -14.93%.
CCC(c1ccc(OC)cc1)N(C)CCO (stereo unspecified) read 18.83%.
CCOCC(=O)Nc1ccc2c(c1)CCN2C(C)=O read -11.82%.
CC(C)CC(NC(N)=O)C(=O)Nc1cc(F)cc(F)c1 (stereo unspecified) read 9.03%.
NC(=O)COc1cccc(C(=O)N2CCCCCC2)c1 read -1.811%.
NCCCNC(=O)c1ccc2ccccc2c1O read 7.116%.
CCC=C(C)C(=O)N1CCN(C(=O)c2cccs2)CC1 read -6.874%.
COCc1cc(O)ncn1 read -0.494%.
COc1cccc(F)c1C(C)N (stereo unspecified) read -3.564%.
CCCc1cc(C(=O)NC(C)c2n[nH]c(=O)[nH]2)cs1 (stereo unspecified) read 5.58%.
NC1CCCN(S(=O)(=O)C=Cc2cccc(Cl)c2)C1 (stereo unspecified) read 17.93%.
O=C1CC(O)CCN1 (stereo unspecified) read 15.59%.
CCNC(=O)C(C)NC(=O)NCc1ccnc(OC)c1 (stereo unspecified) read -19.19%.
O=C(Cc1ccc(F)c(F)c1)N1CCCO1 read -15.92%.
Cc1cnccc1NCCNC(=O)c1ccncc1 read -15.6%.
c1ncn(-c2ccc(NCC3CCOCC3)cc2)n1 read 4.017%.
NC(=O)CSCC(=O)Nc1ccc(Cl)c(F)c1 read -26.29%.
O=C(Cn1cc(Br)cn1)Nc1ccc2c(c1)OCCO2 read -0.8097%.
Cc1noc(NCc2ccccc2F)n1 read 6.928%.
COc1ccccc1N1CCCC(NC(C)=O)C1=O (stereo unspecified) read 5.25%.
CNC(=O)C1CCN(CCCOc2ccccc2)CC1 read 15.07%.
O=C(NCC1(O)CCNC1)Nc1cccc(F)c1 (stereo unspecified) read 2.776%.
Cn1cc(CNC(=O)c2ccco2)cn1 read -32.84%.
Cc1ccsc1C(=O)N1CCOc2ccncc21 read 14.6%.
CCN(CC)C(C)CNc1ccc2nnnn2n1 (stereo unspecified) read -0.5977%.
CC(C)n1cncc1CN(C)CCN1CCOCC1 read -2.843%.
COc1cc(CN)ccc1OCc1cccnc1 read -8.092%.
CC(C)CC(N)c1nc2ccccc2[nH]1 (stereo unspecified) read 6.489%.
Cc1cnc(C(=O)Nc2nnc3n2CCCC3)cn1 read 16.2%.
CN(C)C(CCN)c1ccccc1 (stereo unspecified) read -58.78%.
CC1(C)CN(C(=O)c2cc(C3CC3)on2)CCO1 read -4.058%.
O=C(Nc1ccsc1)c1ccc2c(c1)C(=O)NC2=O read 13.14%.
CC(C)c1nccn1CCCN read -7.573%.
CN(CC(N)=O)C(=O)c1ccc(O)nc1 read -14.59%.
CN(C)C(=O)c1c[nH]nc1C1CCCNC1 (stereo unspecified) read -4.761%.
O=C(CCN1CCCC(O)C1)N1CCc2ccccc21 (stereo unspecified) read 1.422%.
Brc1nnnn1-c1ccc2c(c1)OCCO2 read -17.94%.
CS(=O)(=O)c1cccc(Oc2nccnc2C#N)c1 read -27.59%.
O=C(Cc1cn2ccsc2n1)NCc1ccncc1 read -3.391%.
CCNS(=O)(=O)C1CCN(Cc2ccc(C#N)o2)C1 (stereo unspecified) read 13.57%.
CCc1ccc(CNC(=O)N2CCC(C(N)=O)CC2)s1 read -6.751%.
CN(CC(=O)Nc1sccc1C(N)=O)Cc1cccs1 read 8.403%.
COCCN1CCN(c2ccccc2C#N)CC1 read -2.942%.
COCCN1CCN(CCc2ccncc2)CC1C (stereo unspecified) read -4.308%.
CC1CCCN(CC(=O)Nc2ccc3c(c2)OCO3)C1 (stereo unspecified) read -1.304%.
Cn1cc(C2NC(=O)CC[C@@H]2N)cn1 (stereo partly specified) read -4.032%.
CC(N1CCN(S(N)(=O)=O)CC1)C(F)(F)F (stereo unspecified) read -6.184%.
CCCc1ncncc1C(=O)NCc1cnc(C)cn1 read -0.2392%.
Cc1nc2ccccc2c(NCCOCCO)c1C read -7.001%.

The last 5 entries again:

{"compound": "CC1CCCN(CC(=O)Nc2ccc3c(c2)OCO3)C1", "stereo": "stereo unspecified", "Percent Effect": -1.304}
{"compound": "Cn1cc(C2NC(=O)CC[C@@H]2N)cn1", "stereo": "stereo partly specified", "Percent Effect": -4.032}
{"compound": "CC(N1CCN(S(N)(=O)=O)CC1)C(F)(F)F", "stereo": "stereo unspecified", "Percent Effect": -6.184}
{"compound": "CCCc1ncncc1C(=O)NCc1cnc(C)cn1", "Percent Effect": -0.2392}
{"compound": "Cc1nc2ccccc2c(NCCOCCO)c1C", "Percent Effect": -7.001}